Assay results: PMC10643674

Sequences of proteins named here, by UniProt entry; tags and fusion partners are left off. A change or cut given only in a name is not applied to a line headed by its entry.
UniProt Q96J02: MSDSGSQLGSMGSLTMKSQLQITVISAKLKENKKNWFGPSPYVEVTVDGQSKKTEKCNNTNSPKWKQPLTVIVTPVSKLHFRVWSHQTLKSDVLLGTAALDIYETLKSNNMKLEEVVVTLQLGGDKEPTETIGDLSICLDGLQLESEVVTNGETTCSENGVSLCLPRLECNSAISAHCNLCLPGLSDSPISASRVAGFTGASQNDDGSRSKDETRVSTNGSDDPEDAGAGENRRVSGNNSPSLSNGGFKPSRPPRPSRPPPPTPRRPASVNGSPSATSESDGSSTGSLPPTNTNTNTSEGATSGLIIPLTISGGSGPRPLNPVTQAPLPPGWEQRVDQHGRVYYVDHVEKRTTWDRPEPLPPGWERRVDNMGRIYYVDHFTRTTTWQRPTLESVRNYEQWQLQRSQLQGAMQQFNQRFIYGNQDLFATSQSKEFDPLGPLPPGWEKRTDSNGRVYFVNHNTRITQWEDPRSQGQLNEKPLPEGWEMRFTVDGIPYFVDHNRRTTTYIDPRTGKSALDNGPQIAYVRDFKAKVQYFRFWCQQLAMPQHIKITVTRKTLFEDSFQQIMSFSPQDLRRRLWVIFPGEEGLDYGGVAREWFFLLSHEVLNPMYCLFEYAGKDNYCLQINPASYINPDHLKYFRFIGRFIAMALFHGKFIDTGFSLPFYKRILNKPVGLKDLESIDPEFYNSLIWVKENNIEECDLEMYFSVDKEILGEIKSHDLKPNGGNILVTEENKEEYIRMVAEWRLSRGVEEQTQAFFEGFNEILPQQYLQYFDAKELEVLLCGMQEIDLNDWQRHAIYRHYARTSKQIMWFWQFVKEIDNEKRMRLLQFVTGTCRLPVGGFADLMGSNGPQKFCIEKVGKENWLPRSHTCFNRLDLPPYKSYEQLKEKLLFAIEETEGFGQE
UniProt P12956: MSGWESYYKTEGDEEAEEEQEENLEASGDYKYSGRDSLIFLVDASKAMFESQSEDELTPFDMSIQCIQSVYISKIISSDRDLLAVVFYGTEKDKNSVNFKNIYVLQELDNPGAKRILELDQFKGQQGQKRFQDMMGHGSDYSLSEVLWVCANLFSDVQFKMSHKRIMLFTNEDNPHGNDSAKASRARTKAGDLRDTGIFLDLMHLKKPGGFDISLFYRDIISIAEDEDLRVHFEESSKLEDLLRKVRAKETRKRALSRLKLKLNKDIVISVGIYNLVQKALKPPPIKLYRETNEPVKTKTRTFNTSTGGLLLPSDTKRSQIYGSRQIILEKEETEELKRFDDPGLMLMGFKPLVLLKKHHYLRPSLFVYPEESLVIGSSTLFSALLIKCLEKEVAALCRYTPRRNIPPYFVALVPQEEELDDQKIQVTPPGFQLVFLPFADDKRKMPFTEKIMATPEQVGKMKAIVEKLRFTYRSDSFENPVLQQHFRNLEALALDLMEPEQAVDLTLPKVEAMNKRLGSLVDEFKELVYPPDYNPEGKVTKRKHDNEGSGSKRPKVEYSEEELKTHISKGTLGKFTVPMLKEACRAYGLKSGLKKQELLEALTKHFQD
UniProt O95155: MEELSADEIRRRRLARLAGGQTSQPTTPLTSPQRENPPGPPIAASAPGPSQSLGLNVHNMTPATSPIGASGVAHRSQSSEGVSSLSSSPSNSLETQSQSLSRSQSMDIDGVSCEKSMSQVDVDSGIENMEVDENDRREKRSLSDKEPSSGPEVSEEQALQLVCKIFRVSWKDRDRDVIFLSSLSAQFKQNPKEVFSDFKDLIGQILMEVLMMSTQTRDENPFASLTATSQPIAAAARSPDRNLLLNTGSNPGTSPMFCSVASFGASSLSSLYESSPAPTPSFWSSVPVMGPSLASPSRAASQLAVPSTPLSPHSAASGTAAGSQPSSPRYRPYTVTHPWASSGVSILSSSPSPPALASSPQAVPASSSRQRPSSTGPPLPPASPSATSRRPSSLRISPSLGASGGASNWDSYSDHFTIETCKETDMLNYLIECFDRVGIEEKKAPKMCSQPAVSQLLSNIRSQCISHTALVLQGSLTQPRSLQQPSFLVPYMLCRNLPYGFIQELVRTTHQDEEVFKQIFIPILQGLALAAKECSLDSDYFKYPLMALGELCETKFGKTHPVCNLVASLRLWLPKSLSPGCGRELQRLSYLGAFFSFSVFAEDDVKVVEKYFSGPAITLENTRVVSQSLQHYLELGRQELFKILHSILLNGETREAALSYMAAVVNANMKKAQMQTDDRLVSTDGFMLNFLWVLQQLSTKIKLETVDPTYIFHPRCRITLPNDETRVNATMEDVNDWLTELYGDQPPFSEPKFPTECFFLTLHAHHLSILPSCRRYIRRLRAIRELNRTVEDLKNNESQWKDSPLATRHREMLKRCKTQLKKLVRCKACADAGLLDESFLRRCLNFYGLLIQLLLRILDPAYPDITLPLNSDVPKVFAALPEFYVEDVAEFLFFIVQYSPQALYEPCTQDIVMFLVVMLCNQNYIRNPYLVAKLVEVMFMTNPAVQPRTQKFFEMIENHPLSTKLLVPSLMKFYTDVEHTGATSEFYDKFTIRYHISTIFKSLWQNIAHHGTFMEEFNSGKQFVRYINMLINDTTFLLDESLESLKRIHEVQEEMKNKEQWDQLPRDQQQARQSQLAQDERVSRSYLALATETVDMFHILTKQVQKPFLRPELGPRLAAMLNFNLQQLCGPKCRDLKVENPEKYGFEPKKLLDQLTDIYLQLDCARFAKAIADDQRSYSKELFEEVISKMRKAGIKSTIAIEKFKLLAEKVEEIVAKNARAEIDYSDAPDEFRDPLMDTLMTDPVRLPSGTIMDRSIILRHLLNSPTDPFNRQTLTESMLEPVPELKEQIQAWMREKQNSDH

How the values were obtained:
Test in all cases: co-IP; HEK 293T cells transiently transfected with tagged ITCH, Ku70 and/or c-FLIPL constructs; lysis and washes in CHAPS buffer (1% CHAPS, 10 mM HEPES, 150 mM NaCl); 2 μg antibody (Myc, Flag, ITCH, UBE4B, Ku70 or c-FLIP) and protein A/G Plus agarose at 4 °C; Western blot; some samples with 5 µM MG132 for 8 h
[1] = target: ITCH phosphomimic mutant S199D (UniProt Q96J02)
[2] = target: ITCH phosphomimic mutant S232D (UniProt Q96J02)
[3] = target: ITCH phosphomimic mutant T222D (UniProt Q96J02)
[4] = target: Flag-ITCHw1 (Flag-ITCH WW deleted mutant, only the WW1 domain kept) (UniProt Q96J02)
[5] = target: Flag-ITCHw2 (Flag-ITCH WW deleted mutant, only the WW2 domain kept) (UniProt Q96J02)
[6] = target: Flag-ITCHw3 (Flag-ITCH WW deleted mutant, only the WW3 domain kept) (UniProt Q96J02)
[7] = target: Flag-ITCHw4 (Flag-ITCH WW deleted mutant, only the WW4 domain kept) (UniProt Q96J02)

Measured: binding

Flag-Ku70 (from UniProt P12956 1-609)
binds: [1] | [2] | [3]

endogenous Ku70 (from UniProt P12956 1-609)
binds: [4] | [5] | [6]

endogenous UBE4B (from UniProt O95155 1-1302) (enzyme)
binds: [4] | [7] | [1] | [2] | [3]

These are yes or no findings as the source states them, for the method shown. In cells and extracts the contact can be indirect. Binding can be weak; no strength is given.
